# Test results published in US4567162A (Farmitalia Carlo Erba, priority 1983, dated 1986).
# HELM strings list residues between dots; [ac] is acetyl, [am] amide, other brackets name non-standard units. * marks the point of attachment. Boc = CC(C)(C)OC(=O)*
# Test: general procedure: solution-phase peptide synthesis; ethyl chloroformate / NMM (mixed anhydride)
# Settings: HCl
Substance,step yield (late stage modification step) [% yield],step yield (coupling step) [% yield]
Boc-VPPLGWM-OH,81,
HCl.H-Leu-Gly-Trp-Met-OMe,77,
PEPTIDE1{V.P.P.L.G.W.M}$$$$V2.0,72,
H-Val-Pro-Pro-Leu-Gly-Trp-Met-NH2.HCl,68,
Boc-LGWM-OMe,,60
Boc-VPPLGWM-OMe,,80
PEPTIDE1{V.P.P.L.G.W.M.[OMe]}$$$$V2.0,75,
